The supplement of paper PMC12823440, “Inhibitors supercharge kinase turnover through native proteolytic circuits” (Nature, 2025)
Structures can show the parent of a compound that is named as a salt. This is one part of the list. Hit calls seldom repeat between salt and free forms of one compound.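 In K562 cells expressing nanoluciferase-fused kinases, luminescence was recorded at 4 h intervals between 2 and 18 h, normalized as percent of control with DMSO at 100% and a positive control at 0%. A significant (2 sigma) signal drop marks a time point as decreased. The authors' rule for a hit is not shown and takes in more than the number of time points.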

The chains behind the UniProt entries cited, without tags or fusion partners.
UniProt P21860, whole entry: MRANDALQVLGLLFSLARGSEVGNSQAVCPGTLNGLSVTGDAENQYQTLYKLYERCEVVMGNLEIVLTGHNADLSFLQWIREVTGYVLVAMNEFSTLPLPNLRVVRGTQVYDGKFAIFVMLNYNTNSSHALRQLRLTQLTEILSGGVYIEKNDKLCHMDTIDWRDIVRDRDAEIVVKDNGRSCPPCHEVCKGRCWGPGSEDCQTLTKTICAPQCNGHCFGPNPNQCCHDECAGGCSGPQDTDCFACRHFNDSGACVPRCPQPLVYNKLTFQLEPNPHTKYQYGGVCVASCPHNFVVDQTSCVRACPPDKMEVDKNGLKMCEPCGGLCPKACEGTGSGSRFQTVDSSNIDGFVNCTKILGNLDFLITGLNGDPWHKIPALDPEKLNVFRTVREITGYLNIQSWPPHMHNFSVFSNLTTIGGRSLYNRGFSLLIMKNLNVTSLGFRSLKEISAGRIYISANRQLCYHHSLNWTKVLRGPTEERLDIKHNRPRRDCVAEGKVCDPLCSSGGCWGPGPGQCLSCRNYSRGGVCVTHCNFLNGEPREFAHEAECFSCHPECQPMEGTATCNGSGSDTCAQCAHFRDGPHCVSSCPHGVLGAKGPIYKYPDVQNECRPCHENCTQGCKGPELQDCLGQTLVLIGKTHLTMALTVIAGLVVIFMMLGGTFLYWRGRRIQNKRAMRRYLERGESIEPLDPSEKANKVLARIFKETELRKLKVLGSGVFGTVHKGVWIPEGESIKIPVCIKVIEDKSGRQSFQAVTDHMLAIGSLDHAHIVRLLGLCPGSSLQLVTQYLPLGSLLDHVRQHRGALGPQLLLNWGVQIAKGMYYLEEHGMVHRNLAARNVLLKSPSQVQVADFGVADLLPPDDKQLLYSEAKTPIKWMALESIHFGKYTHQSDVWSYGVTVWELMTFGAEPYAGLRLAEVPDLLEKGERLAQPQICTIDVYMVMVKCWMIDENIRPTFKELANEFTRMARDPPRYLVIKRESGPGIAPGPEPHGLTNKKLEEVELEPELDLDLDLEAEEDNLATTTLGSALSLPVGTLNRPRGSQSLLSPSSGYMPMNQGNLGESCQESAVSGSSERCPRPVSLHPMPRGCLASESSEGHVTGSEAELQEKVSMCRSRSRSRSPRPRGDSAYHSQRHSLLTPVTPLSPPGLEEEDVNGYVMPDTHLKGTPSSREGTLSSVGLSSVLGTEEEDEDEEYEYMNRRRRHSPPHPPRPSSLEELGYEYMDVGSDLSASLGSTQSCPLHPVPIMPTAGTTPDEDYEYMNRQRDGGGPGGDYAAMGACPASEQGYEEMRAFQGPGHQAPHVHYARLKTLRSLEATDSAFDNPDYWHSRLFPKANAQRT

Target: ERBB3 (UniProt P21860)
Experiment: number of time points (of 5) at which kinase-Nluc abundance scored as decreased, DMSO-normalised (count); higher = more persistent destabilization
Details: K562; 2-18 h

How did the “number of time points” value turn out when CN1CC[C@H](c2c(O)cc(O)c3c(=O)cc(-c4ccc(C(F)(F)F)cc4Cl)oc23)[C@H]1CO [(2S,3R)-Voruciclib (hydrochloride)] (2.5 µM) was run?
Its value is 0.

For CCn1nc(C2CCN(C(=O)CCO)CC2)nc1-c1cnc(N)c(-c2nnc(C(C)(C)C)o2)n1 (10 µM), which “number of time points” value is on record?
Its value is 0.

For O=C(O)c1ccccc1Nc1cccc(C(F)(F)F)c1 [Flufenamic acid] (10 µM), which “number of time points” value is on record?
Its value is 0.

CNC(=O)c1ccc(-c2cnc3cnc(-c4ccccc4)cn23)cc1 (10 µM) was tested. Which “number of time points” value did it give?
Its value is 0.

For Nc1cccc(S(=O)(=O)N2CCCN(S(=O)(=O)c3ccc4c(c3)OCCO4)CC2)c1 (10 µM), which “number of time points” value is on record?
Its value is 0.

With CC1(COc2ccc3c(c2)ncn3-c2ccc3cccc(N4CCC(N)CC4)c3n2)COC1 [Crenolanib] (2.5 µM) as the compound, how does the “number of time points” value read?
The value was 0.

O=C(CCCCCn1cc(Nc2ncc(Cl)c(Nc3ccc(Cl)cc3)n2)cn1)NO (2.5 µM) was tested. Which “number of time points” value did it give?
Its value is 0.

For CC(C)n1cnc2c(Nc3cccc(Cl)c3)nc(NCCO)nc21 (10 µM), which “number of time points” value is on record?
The value was 0.

How did the “number of time points” value turn out when COc1ccc(CCNc2ncc3c(=O)n(-c4cccc(F)c4)c(=O)[nH]c3n2)cc1OC (2 µM) was run?
Its value is 0.

How did the “number of time points” value turn out when OCCN(CCO)c1ccc(C(c2ccc(Cl)cc2)c2ccc(N(CCO)CCO)cc2)cc1 (10 µM) was run?
Its value is 3.

With CSc1ccc(CN2CCCC(Nc3ccc4[nH]ncc4c3)C2)cc1 (centres undefined) [Rho-Kinase-IN-1] (10 µM) as the compound, how does the “number of time points” value read?
The value was 0.

How did the “number of time points” value turn out when COc1cc(C(=O)N2CCC(N3CCN(C)CC3)CC2)ccc1Nc1ncc2c(n1)N(C)c1ccccc1C(=O)N2C (10 µM) was run?
Its value is 0.

How did the “number of time points” value turn out when CC(C)c1cc(/C=C(\C#N)C(N)=O)cc(C(C)C)c1O (10 µM) was run?
Its value is 0.

For CCCNC(=O)c1cn2ncnc(Nc3cc(C(=O)NC4CC4)ccc3C)c2c1C (10 µM), which “number of time points” value is on record?
Its value is 0.

For COc1ccc2c(c1OC)OC1c3ccc(O)cc3OCC21 (centres undefined) [Methylnissolin] (10 µM), which “number of time points” value is on record?
The value was 0.

Which “number of time points” value does the source give for CN(CC(=O)N(Cc1ccc(C2CCCCC2)cc1)c1ccc(C(=O)O)c(O)c1)S(=O)(=O)c1c(F)c(F)c(F)c(F)c1F (2.5 µM) here?
Its value is 0.

Which “number of time points” value does the source give for CCCCNC(=N)NC(=N)N [Buformin (hydrochloride)] (2.5 µM) here?
Its value is 0.

Which “number of time points” value does the source give for O=C1NCCCc2c1oc1ccc(O)cc21 (10 µM) here?
The value was 0.

With c1ccc(-c2oc3ncnc(NC[C@@H]4CCCO4)c3c2-c2ccccc2)cc1 (2.5 µM) as the compound, how does the “number of time points” value read?
Its value is 0.

For CC(=O)Nc1nc2ccc(-c3cnc(C)c(NC(=O)OC4CCCCC4)c3)cc2s1 (10 µM), which “number of time points” value is on record?
Its value is 0.

CCOc1ccccc1C=C1C(=O)Nc2ccccc21 (10 µM) was tested. Which “number of time points” value did it give?
Its value is 0.

Cc1ccc(-c2nn(C(C)(C)CNC(=O)c3ccncc3)c3ncnc(N)c23)cc1 (2.5 µM) was tested. Which “number of time points” value did it give?
The value was 0.

CC[C@H](Nc1ncnc2[nH]cnc12)c1oc2ccccc2c(=O)c1-c1cccc(F)c1 [Tenalisib] (10 µM) was tested. Which “number of time points” value did it give?
Its value is 0.

Which “number of time points” value does the source give for CC(C)(C)C(=O)N1N=CC[C@H]1c1ccccc1 (10 µM) here?
Its value is 0.

With COC1(C(=O)N[C@@H](C)c2ccc(-n3cc(F)cn3)nc2)CCC(c2nc(C)cc(Nc3cc(C)[nH]n3)n2)CC1 (stereo partly drawn) [trans-Pralsetinib] (2.5 µM) as the compound, how does the “number of time points” value read?
Its value is 0.

Which “number of time points” value does the source give for CN(C)Cc1cccc(N=C(c2ccccc2)c2c(O)[nH]c3cc(C(N)=O)ccc23)c1 (10 µM) here?
The value was 0.

COc1nc(-c2ccnc(NC(=O)C3CC3)c2)sc1C(N)=O [GSK-3β inhibitor 2] (10 µM) was tested. Which “number of time points” value did it give?
Its value is 0.

C=C[C@H]1[C@H](O[C@@H]2O[C@H](CO)[C@@H](O)[C@H](O)[C@H]2OC(=O)c2c(O)cc(O)cc2-c2cccc(O)c2)OC=C2C(=O)OCC[C@H]21 [Amarogentin] (10 µM) was tested. Which “number of time points” value did it give?
The value was 0.

For COc1cc(C(C)=O)cc(OC)c1O [Acetosyringone] (10 µM), which “number of time points” value is on record?
The value was 0.

For O=C(O)CCc1ccc(NCc2cccc(Oc3ccccc3)c2)cc1 (10 µM), which “number of time points” value is on record?
The value was 0.

How did the “number of time points” value turn out when Cc1cc(C(C)Nc2ccccc2)c2nc(N3CCOCC3)cc(=O)n2c1 (centres undefined) (10 µM) was run?
Its value is 0.

For O=C(O)c1ccc(-c2c[nH]c3ncc(-c4ccccc4)cc23)cc1C1CCCC1 (2.5 µM), which “number of time points” value is on record?
Its value is 0.

With CC1=C(CC(=O)O)c2cc(F)ccc2/C1=C\c1ccc(C(C)C)cc1 (10 µM) as the compound, how does the “number of time points” value read?
The value was 0.

How did the “number of time points” value turn out when COc1cc(N2CCC(N(C)C)CC2)ccc1Nc1ncc(Cl)c(Nc2ccccc2P(C)(C)=O)n1 (2.5 µM) was run?
Its value is 0.

With Cc1ccc(-c2ccc3c(ccc4sc5c(c43)NC[C@@H](C)NC5=O)n2)cn1 (10 µM) as the compound, how does the “number of time points” value read?
The value was 0.

With Nc1cc(C(F)F)c(-c2nc(N3C4CCC3COC4)nc(N3C4CCC3COC4)n2)cn1 (2.5 µM) as the compound, how does the “number of time points” value read?
The value was 0.

For O=c1cc(-c2ccc(O)c(O)c2O)oc2ccccc12 (10 µM), which “number of time points” value is on record?
The value was 0.

For CC(C)c1ccc(CC(=O)N2CCN(c3ccc(C#N)nn3)CC2)cc1 (10 µM), which “number of time points” value is on record?
The value was 0.

How did the “number of time points” value turn out when CN(C)Cc1cccc(N=C(c2ccccc2)c2c(O)[nH]c3cc(C(=O)N(C)C)ccc23)c1 (10 µM) was run?
Its value is 0.
